Earlier results as cited in patent publication US20100272706A1, “ANTIVIRALS” (priority 2007, published 2010).
Some of these results come from one statement about several compounds together.

Tests used:
Settings in all cases: RT-PCR, validated by Qiagen; cited from earlier work
DYRK3 mRNA = test system: DYRK3 mRNA
GPRK2L mRNA = test system: GPRK2L mRNA
PAK1 mRNA = test system: PAK1 mRNA

Substance | target gene mRNA knockdown (DYRK3 mRNA) | target gene mRNA knockdown (GPRK2L mRNA) | also measured
DYRK3_p1 (antisense UUAGCUUUAAGCUUAUUGGCT; sense CCAAUAAGCUUAAAGCUAATT; chemistry not given here) | ≥ 70% | – | –
DYRK3_p2 (antisense UUUAGGGCCACGUACUGUCGA; sense GACAGUACGUGGCCCUAAATT; chemistry not given here) | ≥ 70% | – | –
DYRK3_p3 (antisense UUGCAGGAUUAACUACCCGTT; sense CGGGUAGUUAAUCCUGCAATT; chemistry not given here) | ≥ 70% | – | –
GPRK2L_p1 (antisense UUCUUGGUGAGUAACAUCCTG; sense GGAUGUUACUCACCAAGAATT; chemistry not given here) | – | ≥ 70% | –
GPRK2L_p2 (antisense UGAUGUCUUUGAAACACCCGG; sense GGGUGUUUCAAAGACAUCATT; chemistry not given here) | – | ≥ 70% | –
GPRK2L_p3 (antisense UAGAUCCCUUUCACCACCGAG; sense CGGUGGUGAAAGGGAUCUATT; chemistry not given here) | – | ≥ 70% | –
PAK1_p2 (antisense UUCAGUUGCAGUUCUCUUCAA; sense GAAGAGAACUGCAACUGAATT; chemistry not given here) | – | – | target gene mRNA knockdown (PAK1 mRNA): ≥ 70%
PAK1_p3 (antisense UUUAGAACCAUGGUUUAGGGT; sense CCUAAACCAUGGUUCUAAATT; chemistry not given here) | – | – | target gene mRNA knockdown (PAK1 mRNA): ≥ 70%
